Data on one molecule can be found in article PMC5799240.

These are yes or no findings as the source states them, for the method shown. Some results given as binding are weak or reduced against the parent protein; the word gives no strength. Tags and fused reporters may be left off the sequences shown.

The target in the test is TRiC subunit CCT6 (yeast (endogenous in BY4741 or BY4742)), P39079. The experiment in a line: cryo-EM structure; both-ring closed state: purified tagged TRiC incubated with 1 mM ATP, 5 mM MgCl2, 5 mM Al(NO3)3, 30 mM NaF for 1 h at 30 °C before freezing; subunit located by the extra density of its tag; both purified. Conditions: remark: other sources report otherwise.

B1: TRiC subunit CCT3 with an internal Strep-CBP-6xHis tag (CCT3-CBP), P39077 1-534 (protein)
chain: MQAPVVFMNASQERTTGRQAQISNITAAKAVADVIRTCLGPKAMLKMLLDPMGGLVLTNDGHAILREIDVAHPAAKSMLELSRTQDEEVGDGTTTVIILAGEILAQCAPYLIEKNIHPVIIIQALKKALTDALEVIKQVSKPVDVENDAAMKKLIQASIGTKYVIHWSEKMCELALDAVKTVRKDLGQTVEGEPNFEIDIKRYVRVEKIPGGDVLDSRVLKGVLLNKDVVHPKMSRHIENPRVVLLDCPLEYKKGESQTNIEIEKEEDWNRILQIEEEQVQLMCEQILAVRPTLVITEKGVSDLAQHYLLKGGCSVLRRVKKSDNNRIARVTGATIVNRVEDLKESDVGTNCGLFKVEMIGDEYFSFLDNCKEPKACTIMLRGGSKDILNEIDRNLQDAMAVARNVMLSPSLSPGGGATEMAVSVKLAEKAKQLEGIQQWPYQAVADAMECIPRTLIQNAGGDPIRLLSQLRAKHAQGNFTTGIDGDKGKIVDMVSYGIWEPEVIKQQSVKTAIESACLLLRVDDIVSGVRKQE
Regarding B1, the binding result was “binds”.
